Earlier results in patent US8440640B2, “Methods and compositions for treating obesity and related disorders” (University of Medicine and Dentistry of New Jersey, priority 2008, dated 2013).
At least one read-out could not be matched to a standard name with certainty.

Details: cited from earlier work

Compound	blood-brain barrier permeability
Nc1ncnc2c1ncn2[C@@H]1O[C@H](CO)[C@@H](O)[C@@H]1O [AraAde, 9-β-D-arabinofuranosyladenine]	little
Nc1ncnc2c1ncn2[C@@H]1O[C@H](CO)[C@@H](O)[C@H]1O [adenosine]	hardly crosses
